# This is one part of the list.
# Tests used:
# Assay in all cases: glycan array binding signal (z-score within array); higher = stronger binding
# Settings in all cases: glycan notation: IUPAC condensed, linker removed
# [1] = target: Neu5Ac(a2-6)Gal(b1-4)GlcNAc(b1-2)Man(a1-3)[Man(a1-6)]Man(b1-4)GlcNAc(b1-4)GlcNAc
# Summary of the method: (§1)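 The binding signal is a Z-score computed within each array. Data were drawn from 3228 arrays in the Consortium for Functional Glycomics database, restricted to those with a known protein sequence. Scores were averaged over arrays of the same protein sequence at different concentrations or buffers, and over linkers, and negative values can be taken as non-binding.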
# [2] = target: Neu5Ac(a2-6)Gal(b1-4)GlcNAc(b1-2)Man(a1-3)[Neu5Ac(a2-3)Gal(b1-4)GlcNAc(b1-2)Man(a1-6)]Man(b1-4)GlcNAc(b1-4)GlcNAc
# Summary of the method: as §1
# [3] = target: Neu5Ac(a2-6)Gal(b1-4)GlcNAc(b1-2)Man(a1-3)[Neu5Ac(a2-6)Gal(b1-4)GlcNAc(b1-2)Man(a1-6)]Man(b1-4)GlcNAc(b1-4)GlcNAc
# Summary of the method: as §1
# [4] = target: Neu5Ac(a2-6)Gal(b1-4)GlcNAc(b1-2)Man(a1-3)[Neu5Ac(a2-6)Gal(b1-4)GlcNAc(b1-2)Man(a1-6)]Man(b1-4)GlcNAc(b1-4)[Fuc(a1-6)]GlcNAc
# Summary of the method: as §1
# [5] = target: Neu5Ac(a2-6)Gal(b1-4)GlcNAc(b1-2)Man(a1-6)Man(b1-4)GlcNAc(b1-4)GlcNAc
# Summary of the method: as §1
# [6] = target: Neu5Ac(a2-6)Gal(b1-4)GlcNAc(b1-2)Man(a1-6)[Gal(b1-4)GlcNAc(b1-2)Man(a1-3)]Man(b1-4)GlcNAc(b1-4)GlcNAc
# Summary of the method: as §1
# [7] = target: Neu5Ac(a2-6)Gal(b1-4)GlcNAc(b1-2)Man(a1-6)[GlcNAc(b1-2)Man(a1-3)]Man(b1-4)GlcNAc(b1-4)GlcNAc
# Summary of the method: as §1
# [8] = target: Neu5Ac(a2-6)Gal(b1-4)GlcNAc(b1-2)Man(a1-6)[Man(a1-3)]Man(b1-4)GlcNAc(b1-4)GlcNAc
# Summary of the method: as §1
# [9] = target: Neu5Ac(a2-6)Gal(b1-4)GlcNAc(b1-2)[Neu5Ac(a2-6)Gal(b1-4)GlcNAc(b1-4)]Man(a1-3)[GlcNAc(b1-4)][Neu5Ac(a2-6)Gal(b1-4)GlcNAc(b1-2)[Neu5Ac(a2-6)Gal(b1-4)GlcNAc(b1-6)]Man(a1-6)]Man(b1-4)GlcNAc(b1-4)GlcNAc
# Summary of the method: as §1
# [10] = target: Neu5Ac(a2-6)Gal(b1-4)GlcNAc(b1-2)[Neu5Ac(a2-6)Gal(b1-4)GlcNAc(b1-4)]Man(a1-3)[GlcNAc(b1-4)][Neu5Ac(a2-6)Gal(b1-4)GlcNAc(b1-4)Man(a1-6)]Man(b1-4)GlcNAc(b1-4)GlcNAc
# Summary of the method: as §1
# [11] = target: Neu5Ac(a2-6)Gal(b1-4)GlcNAc(b1-2)[Neu5Ac(a2-6)Gal(b1-4)GlcNAc(b1-6)]Man(a1-6)[Neu5Ac(a2-6)Gal(b1-4)GlcNAc(b1-2)Man(a1-3)][GlcNAc(b1-4)]Man(b1-4)GlcNAc(b1-4)GlcNAc
# Summary of the method: as §1
# [12] = target: Neu5Ac(a2-6)Gal(b1-4)GlcNAc(b1-3)Gal(b1-3)GlcNAc
# Summary of the method: as §1
# [13] = target: Neu5Ac(a2-6)Gal(b1-4)GlcNAc(b1-3)Gal(b1-4)GlcNAc
# Summary of the method: as §1
# [14] = target: Neu5Ac(a2-6)Gal(b1-4)GlcNAc(b1-3)Gal(b1-4)GlcNAc(b1-2)Man(a1-3)[Neu5Ac(a2-6)Gal(b1-4)GlcNAc(b1-3)Gal(b1-4)GlcNAc(b1-2)Man(a1-6)]GalNAc
# Summary of the method: as §1
# [15] = target: Neu5Ac(a2-6)Gal(b1-4)GlcNAc(b1-3)Gal(b1-4)GlcNAc(b1-3)Gal(b1-4)GlcNAc
# Summary of the method: as §1
# [16] = target: Neu5Ac(a2-6)Gal(b1-4)GlcNAc(b1-3)Gal(b1-4)GlcNAc(b1-3)Gal(b1-4)GlcNAc(b1-2)Man(a1-3)[Neu5Ac(a2-6)Gal(b1-4)GlcNAc(b1-3)Gal(b1-4)GlcNAc(b1-3)Gal(b1-4)GlcNAc(b1-2)Man(a1-6)]GalNAc
# Summary of the method: as §1
# [17] = target: Neu5Ac(a2-6)Gal(b1-4)GlcNAc(b1-3)Gal(b1-4)GlcNAc(b1-3)GalNAc
# Summary of the method: as §1
# [18] = target: Neu5Ac(a2-6)Gal(b1-4)GlcNAc(b1-3)Gal(b1-4)GlcNAc(b1-3)[Neu5Ac(a2-6)Gal(b1-4)GlcNAc(b1-3)Gal(b1-4)GlcNAc(b1-6)]GalNAc
# Summary of the method: as §1
# [19] = target: Neu5Ac(a2-6)Gal(b1-4)GlcNAc(b1-3)Gal(b1-4)GlcNAc(b1-6)[Gal(b1-3)]GalNAc
# Summary of the method: as §1
# [20] = target: Neu5Ac(a2-6)Gal(b1-4)GlcNAc(b1-3)Gal(b1-4)[Fuc(a1-3)]GlcNAc(b1-3)Gal(b1-4)[Fuc(a1-3)]GlcNAc
# Summary of the method: as §1
# [21] = target: Neu5Ac(a2-6)Gal(b1-4)GlcNAc(b1-3)GalNAc
# Summary of the method: as §1
# [22] = target: Neu5Ac(a2-6)Gal(b1-4)GlcNAc(b1-3)[Neu5Ac(a2-6)Gal(b1-4)GlcNAc(b1-6)]GalNAc
# Summary of the method: as §1
# [23] = target: Neu5Ac(a2-6)Gal(b1-4)GlcNAc(b1-6)GalNAc
# Summary of the method: as §1
# [24] = target: Neu5Ac(a2-6)Gal(b1-4)GlcNAc(b1-6)[Gal(b1-3)GlcNAc(b1-3)]Gal(b1-4)Glc
# Summary of the method: as §1
# [25] = target: Neu5Ac(a2-6)Gal(b1-4)GlcNAc(b1-6)[Gal(b1-3)]GalNAc
# Summary of the method: as §1
# [26] = target: Neu5Ac(a2-6)Gal(b1-4)GlcNAc6S
# Summary of the method: as §1
# Neu5Ac(a2-6)GalNAc = target: Neu5Ac(a2-6)GalNAc
# Summary of the method: as §1
# [27] = target: Neu5Ac(a2-6)GalNAc(b1-4)GlcNAc
# Summary of the method: as §1
# [28] = target: Neu5Ac(a2-6)GalNAc(b1-4)GlcNAc6S
# Summary of the method: as §1
# [29] = target: Neu5Ac(a2-6)GlcNAc(b1-4)GlcNAc
# Summary of the method: as §1
# [30] = target: Neu5Ac(a2-6)GlcNAc(b1-4)GlcNAc(b1-4)GlcNAc
# Summary of the method: as §1
binder,measurement,setting,value
"CcfD (Bacteroides vulgatus), A6KYX8 (protein) MKYKNYFKSIIYLALGAFTLGSCEDFLDRQEDEKLTFDKIWESRNTTQQYWLNAMSFLPNENGSLQGDTEPYLGASDECTIAYDRQYRWINFGTWNPSQVPYYKMDHYYKGIRECNIFLQNVYKCSDPLVTKDQLDEWYWQTRFARAYYYFLMMRDYGPVFLLGDDLLDFTASTEELYRPRNTWDQCVNYVVSEMTQCAESGVVLQQSDLPAAKWGLATVGTCHAVISRLLLYSARPLFNGNKLYSTVKNPDAPDFPELSGVKLFPELDNTKWQKAAEAAKKLIDNPCYELYRAGNDNPYEDYYGVTHETWNKELIWTDRYNGLFSWGVGTVPTGVAGTAYGAVGPTQALVDAYAMNTGWYPITGYEADGTPIVEPLSGYELASELEKSSWIYPSGGWSNKADFEIEAPNMYKDREPRFYVTVFFGGNQWLHGNSATSISFAKGGNGNKSHDYPKSGYLCNRFYDHKLNSSEGQWGNITFPVFRLGEIYLNFIEAVLECKKNGVALDPSYEALAMEKWADLRKRAGLDPITSIYGQVSTEELIQLCRKERQIELAFERHRYFDTRTWMIATQTDNGKMYGMNTSCPLDAGMKGTETPDGFWERTAFETRVFQNKHYLYPFSQRELDRNKLLTQNYGW",glycan array binding signal (z-score),[1],-0.398
same,glycan array binding signal (z-score),[2],-1.01
same,glycan array binding signal (z-score),[3],-0.365
same,glycan array binding signal (z-score),[4],-0.236
same,glycan array binding signal (z-score),[5],-0.947
same,glycan array binding signal (z-score),[6],6.49
same,glycan array binding signal (z-score),[7],7
same,glycan array binding signal (z-score),[8],-0.861
same,glycan array binding signal (z-score),[9],-0.332
same,glycan array binding signal (z-score),[10],-0.708
same,glycan array binding signal (z-score),[11],-0.576
same,glycan array binding signal (z-score),[12],-0.881
same,glycan array binding signal (z-score),[13],-0.998
same,glycan array binding signal (z-score),[14],-0.505
same,glycan array binding signal (z-score),[15],-0.866
same,glycan array binding signal (z-score),[16],1.32
same,glycan array binding signal (z-score),[17],-0.398
same,glycan array binding signal (z-score),[18],1.19
same,glycan array binding signal (z-score),[19],-0.841
same,glycan array binding signal (z-score),[20],-1.07
same,glycan array binding signal (z-score),[21],1.42
same,glycan array binding signal (z-score),[22],-0.109
same,glycan array binding signal (z-score),[23],-0.617
same,glycan array binding signal (z-score),[24],1.82
same,glycan array binding signal (z-score),[25],-0.546
same,glycan array binding signal (z-score),[26],2.04
same,glycan array binding signal (z-score),Neu5Ac(a2-6)GalNAc,0.171
same,glycan array binding signal (z-score),[27],-0.78
same,glycan array binding signal (z-score),[28],-0.358
same,glycan array binding signal (z-score),[29],0.582
same,glycan array binding signal (z-score),[30],0.328

# Rewritten bar-delimited: entries from further up
binder | measurement | setting | value
CcfD (Bacteroides vulgatus), A6KYX8 (protein) MKYKNYFKSIIYLALGAFTLGSCEDFLDRQEDEKLTFDKIWESRNTTQQYWLNAMSFLPNENGSLQGDTEPYLGASDECTIAYDRQYRWINFGTWNPSQVPYYKMDHYYKGIRECNIFLQNVYKCSDPLVTKDQLDEWYWQTRFARAYYYFLMMRDYGPVFLLGDDLLDFTASTEELYRPRNTWDQCVNYVVSEMTQCAESGVVLQQSDLPAAKWGLATVGTCHAVISRLLLYSARPLFNGNKLYSTVKNPDAPDFPELSGVKLFPELDNTKWQKAAEAAKKLIDNPCYELYRAGNDNPYEDYYGVTHETWNKELIWTDRYNGLFSWGVGTVPTGVAGTAYGAVGPTQALVDAYAMNTGWYPITGYEADGTPIVEPLSGYELASELEKSSWIYPSGGWSNKADFEIEAPNMYKDREPRFYVTVFFGGNQWLHGNSATSISFAKGGNGNKSHDYPKSGYLCNRFYDHKLNSSEGQWGNITFPVFRLGEIYLNFIEAVLECKKNGVALDPSYEALAMEKWADLRKRAGLDPITSIYGQVSTEELIQLCRKERQIELAFERHRYFDTRTWMIATQTDNGKMYGMNTSCPLDAGMKGTETPDGFWERTAFETRVFQNKHYLYPFSQRELDRNKLLTQNYGW | glycan array binding signal (z-score) | [27] | -0.78
same | glycan array binding signal (z-score) | [28] | -0.358

# From the supplement of paper PMC8728848
